The source of these data is patent publication US8536191B2 (priority 2010, dated 2013).

On to `Cl.Oc1ccc2c3c1O[C@H]1[C@@H](O)CC[C@@]4(O)[C@@H](C2)N(CC2CCC2)CC[C@]314` [Form A], for which, for the setting “50% RH or above”, the “form change when exposed to elevated relative humidity” value is “converts to Form C (monohydrate)”. Moreover, the “form obtained after dynamic vapor sorption and desorption” value (sorption 5% to 95% RH, then desorption 95% to 5% RH, 25° C.) is reported as “Form C”.
